For data set [1], the system named is yeast. Briefly: Expression and cleavage of UBL-GFP / SUMO-X-GFP fusions in yeast (Western blot). The class given is cell-based, S. cerevisiae. The conditions noted are these: for Cleavage of fusion by endogenous hydrolases in yeast: yeast BJ1991, copper induction.
Data set [2] relates to Hi-Five insect cells. In words: Expression, secretion and cleavage of SUMO/ubiquitin GFP fusions in insect cells (Western blot). The format is cell-based.

For GFP [reference compound], the “Detection of unfused GFP by Western blot” value in data set [1] (yeast, 20 ug protein loaded) is “not detectable”.

Regarding “SUMO-GFP: SUMO fused to N-terminus of GFP (SEQ ID NO: 5)”, the “Cleavage of fusion by endogenous hydrolases in yeast” value was “efficiently cleaved” in data set [1]; “fusions were processed and GFP” in data set [1] (listed as SUMO). For the same substance, in data set [2] (Hi-Five cells), the “Cleavage by endogenous SUMO hydrolases in insect cells” value is “efficiently cleaved”. The “Enhancement of protein expression compared to GFP” value in data set [2] (insect cells, Met as N-termini) is 10 fold compared to GFP. Further, the “Secretion compared to GFP” value in data set [2] (insect cells, media) is listed as “At least 50 fold compared to GFP”.

These data come from patent publication US7220576B2, “Methods and compositions for protein expression and purification” (Lifesensors, Inc., priority 2002, dated 2007).
